Experimental data taken from patent publication US8835434B2, “Hydroxylated pyrimidyl cyclopentanes as akt protein kinase inhibitors” (Array Biopharma, Inc., priority 2008, dated 2014).
Some entries share one result that the patent states for a list of compounds.

The chains behind the UniProt entries cited, without tags or fusion partners. Where a name states a change or a piece, a line headed by the entry shows the natural chain unless it says otherwise.
UniProt P31749: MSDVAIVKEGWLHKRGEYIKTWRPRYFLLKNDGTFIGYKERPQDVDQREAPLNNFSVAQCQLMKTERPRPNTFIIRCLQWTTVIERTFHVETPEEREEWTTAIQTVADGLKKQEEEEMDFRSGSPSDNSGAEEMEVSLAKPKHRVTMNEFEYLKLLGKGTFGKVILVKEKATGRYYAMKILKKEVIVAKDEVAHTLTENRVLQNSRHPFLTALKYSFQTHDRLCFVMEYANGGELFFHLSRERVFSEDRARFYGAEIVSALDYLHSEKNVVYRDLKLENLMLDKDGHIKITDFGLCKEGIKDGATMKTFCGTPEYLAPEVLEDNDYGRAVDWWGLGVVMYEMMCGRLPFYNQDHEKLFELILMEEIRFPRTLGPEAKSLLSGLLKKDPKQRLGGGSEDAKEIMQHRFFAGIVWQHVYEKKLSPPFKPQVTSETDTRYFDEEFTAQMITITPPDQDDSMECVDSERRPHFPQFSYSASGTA

Biological target: full-length human recombinant active AKT-1 (Homo sapiens, UniProt P31749)
Test: AKT-1 Kinase Assay (IMAP fluorescence polarization)
Assay type: biochemical
Conditions: AKT-1 phosphorylation of fluorescein-labeled Crosstide, IMAP kit

An IC50 of less than 500 nM was found for C[C@@H]1C[C@@H](O)c2ncnc(N3CCN(C(=O)[C@H](CNCC(C)(C)O)c4ccc(Cl)cc4)CC3)c21 [Example 1] in this work.
